The assay deals with L1210 leukemia ip in BDF1 mice, survival T/C. As to the kind of experiment: NCI In Vivo Anticancer Drug Screen. Data for tumor model L1210 Leukemia (intraperitoneal) in B6D2F1 (BDF1) mice. As to conditions: T/C endpoint: mean survival time, higher T/C = longer survival.
[1] abbreviates: dose: 32.0 mg/kg/injection, schedule: Q01DX001 (ip), vehicle: water.

SMILES strings stand for the structures. The list is a part of this screen's results and no random one: it is rich in T/C values a quarter to a half above the control, in often repeated tests (any T/C) and in doses without a T/C. Other doses and runs of a compound stand elsewhere. T/C is the treated group as % of the vehicle group. Some entries give survivors of the animals treated and no T/C: the source holds a T/C of zero for them, seemingly a mark for toxic or unscored doses. Some doses without a T/C left all or most animals alive at the check, yet need not have been tolerated: survival well below the control is almost never listed, so the zero probably covers shortened survival too. Survivors were counted at the toxicity check, usually on the fifth day, unless a day is given; later deaths do not show. Schedules are NCI's codes, taken here to give the interval after Q, in days (D) or hours (H), and the number of doses after X. Some entries hold several experiments; the values are given in rising order. Some schedules carry Z or #; the key to these is not given. For survival time, the PubChem record calls one and a half times the control and up active, and a quarter to a half above the control has no call in these data; cut-offs in other NCI protocols can differ. Signs of the kind (2×) give the number of equal values in this list. Some T/C values are followed by the survivors on the day toxicity was checked, most often the fifth; without a count, all were alive then.

Turning to `O=C1N[C@@H]([C@H]2CC[C@H](Cl)CN2)C(=O)N[C@H]1[C@H]1CC[C@H](Cl)CN1`, the T/C was 103 and 106 % of control (dose: 0.25 mg/kg/injection, schedule: Q01DX001 (ip), vehicle: water, evaluated on day 5); 108 % of control (dose: 0.25 mg/kg/injection, schedule: Q01DX001 (ip), vehicle: water, evaluated on day 30); 103 and 107 % of control (dose: 0.25 mg/kg/injection, schedule: Q01DX001 (ip), vehicle: water, evaluated on day 60); 146 % of control (dose: 0.4 mg/kg/injection, schedule: Q01DX009 (ip), vehicle: saline); 101 and 102 % of control (dose: 0.5 mg/kg/injection, schedule: Q01DX001 (ip), vehicle: water, evaluated on day 5); 117 % of control (dose: 0.5 mg/kg/injection, schedule: Q01DX001 (ip), vehicle: water, evaluated on day 30). Besides, the T/C is, setting by setting: (dose: 0.5 mg/kg/injection, schedule: Q01DX001 (ip), vehicle: water, evaluated on day 60) 101 and 103 % of control; (dose: 0.5 mg/kg/injection, schedule: Q01DX009 (ip), vehicle: saline) 127 % of control; (dose: 0.5 mg/kg/injection, schedule: Q01DX009 (sc), vehicle: saline) 129 % of control; (dose: 0.5 mg/kg/injection, schedule: Q03HX008 (ip), vehicle: saline) 134 % of control; (dose: 0.8 mg/kg/injection, schedule: Q01DX009 (ip), vehicle: saline) 146 % of control; (dose: 1.0 mg/kg/injection, schedule: Q01DX001 (ip), vehicle: water, evaluated on day 5) 114 (2×) and 117 % of control. Besides, the T/C was 124 % of control (dose: 1.0 mg/kg/injection, schedule: Q01DX001 (ip), vehicle: water, evaluated on day 30); 93, 109, 114 (2×), 118 % of control (dose: 1.0 mg/kg/injection, schedule: Q01DX001 (ip), vehicle: water, evaluated on day 60); 144 % of control (dose: 1.0 mg/kg/injection, schedule: Q01DX009 (ip), vehicle: saline); 143 % of control (dose: 1.0 mg/kg/injection, schedule: Q04DX003 (ip), vehicle: saline); 115, 121, 125 (2×), 180, 256, 262 % of control (dose: 2.0 mg/kg/injection, schedule: Q01DX001 (ip), vehicle: water, evaluated on day 5); 153 % of control (dose: 2.0 mg/kg/injection, schedule: Q01DX001 (ip), vehicle: water, evaluated on day 30). Moreover, the T/C is, setting by setting: (dose: 2.0 mg/kg/injection, schedule: Q01DX001 (ip), vehicle: water, evaluated on day 60) 112, 120, 121, 125, 126 (2×), 182 % of control; (dose: 2.5 mg/kg/injection, schedule: Q01DX001 (ip), vehicle: saline) 138 and 144 % of control; (dose: 2.5 mg/kg/injection, schedule: Q01DX001 (ip), vehicle: water) 147 % of control; (dose: 3.0 mg/kg/injection, schedule: Q01DX001 (ip), vehicle: saline) 135 % of control; (dose: 4.0 mg/kg/injection, schedule: Q01DX001 (ip), vehicle: none) 138 % of control; (dose: 4.0 mg/kg/injection, schedule: Q01DX001 (ip), vehicle: other) 130 % of control. In addition, the T/C is 136, 140, 144, 154, 198, 306 % of control (2×) (dose: 4.0 mg/kg/injection, schedule: Q01DX001 (ip), vehicle: water, evaluated on day 5); 118, 137, 140, 141, 142, 146, 154 % of control (dose: 4.0 mg/kg/injection, schedule: Q01DX001 (ip), vehicle: water, evaluated on day 60); 142 % of control (dose: 4.0 mg/kg/injection, schedule: Q01DX001 (sc), vehicle: saline); 106 % of control (dose: 4.0 mg/kg/injection, schedule: Q01DX009 (ip), vehicle: saline, evaluated on day 30); 92, 117, 229 % of control (dose: 4.0 mg/kg/injection, schedule: Q01DX009 (ip), vehicle: saline, evaluated on day 60); 140 % of control (dose: 4.0 mg/kg/injection, schedule: Q01DX009 (ip), vehicle: water). Also, the T/C (dose: 4.4 mg/kg/injection, schedule: Q01DX001 (ip), vehicle: saline, evaluated on day 5) is 177 % of control; the T/C (dose: 4.4 mg/kg/injection, schedule: Q01DX001 (ip), vehicle: saline, evaluated on day 60) is 148, 150, 160, 263 % of control; the T/C (dose: 6.6 mg/kg/injection, schedule: Q01DX001 (ip), vehicle: saline, evaluated on day 5) was 210 % of control; the T/C (dose: 6.6 mg/kg/injection, schedule: Q01DX001 (ip), vehicle: saline, evaluated on day 60) is reported as 221, 224, 262 % of control; the T/C (dose: 8.0 mg/kg/injection, schedule: Q01DX001 (ip), vehicle: water, evaluated on day 5) was 116, 116 [8 of 10 alive], 158, 182, 216, 399, 408 % of control; the T/C (dose: 8.0 mg/kg/injection, schedule: Q01DX001 (ip), vehicle: water, evaluated on day 60) is recorded as 184, 212, 220, 282, 283, 400, 412 % of control. The T/C (dose: 8.0 mg/kg/injection, schedule: Q08DX002 (ip), vehicle: saline) is 145 % of control; the T/C (dose: 10.0 mg/kg/injection, schedule: Q01DX001 (ip), vehicle: saline, evaluated on day 5) was 328 % of control; the T/C (dose: 10.0 mg/kg/injection, schedule: Q01DX001 (ip), vehicle: saline, evaluated on day 30) was 175 and 273 % of control; the T/C (dose: 10.0 mg/kg/injection, schedule: Q01DX001 (ip), vehicle: saline, evaluated on day 60) was 232 [8 of 10 alive], 285, 440 [9 of 10 alive], 470 % of control; the T/C (dose: 16.0 mg/kg/injection, schedule: Q01DX001 (ip), vehicle: saline) was 137 % of control [8 of 10 alive]; the T/C (dose: 16.0 mg/kg/injection, schedule: Q01DX001 (ip), vehicle: water, evaluated on day 5) was 67, 72, 78, 82 (2×), 294 % of control. Further, the T/C was 197 [8 of 10 alive], 249 [9 of 10 alive], 257 [8 of 10 alive], 291 % of control [7 of 10 alive] (dose: 16.0 mg/kg/injection, schedule: Q01DX001 (ip), vehicle: water, evaluated on day 60); 143 % of control [9 of 10 alive] (dose: 16.0 mg/kg/injection, schedule: Q01DX001 (sc), vehicle: saline); 59, 64, 65 % of control under setting [1]; 134 % of control (dose: 250.0 micrograms/kg/injection, schedule: Q03HX024 (ip), vehicle: saline). The survivor count runs as follows: (dose: 4.0 mg/kg/injection, schedule: Q01DX009 (sc), vehicle: saline) 10 of 10; (dose: 6.1 mg/kg/injection, schedule: Q01DX009 (ip), vehicle: saline) 6 of 6; (dose: 8.0 mg/kg/injection, schedule: Q01DX009 (oral), vehicle: saline) 10 of 10; (dose: 16.0 mg/kg/injection, schedule: Q01DX001 (ip), vehicle: water) 1 of 10, 4 of 10, 6 of 10, 10 of 10; (dose: 16.0 mg/kg/injection, schedule: Q01DX009 (oral), vehicle: saline) 10 of 10; (dose: 20.0 mg/kg/injection, schedule: Q01DX001 (ip), vehicle: saline) 1 of 6. Besides, the survivor count is listed as 8 of 10 (dose: 20.0 mg/kg/injection, schedule: Q01DX001 (ip), vehicle: water); 2 of 10, 4 of 10, 5 of 10 under setting [1]; 10 of 10 (dose: 32.0 mg/kg/injection, schedule: Q01DX001 (oral), vehicle: saline); 6 of 10 (dose: 1600.0 mg/kg/injection, schedule: Q01DX001 (ip), vehicle: water); 7 of 10 (dose: 3200.0 mg/kg/injection, schedule: Q01DX001 (ip), vehicle: water).

For the molecule `CC1=CC(=O)OC2(C1)CC1CCC2CN1C` (stereo not given), the survivor count (dose: 200.0 mg/kg/injection, schedule: Q01DX001 (ip), vehicle: saline) was 0 of 4.

Take `Cc1ccc(Nc2nc(N)nc(N)c2N)cc1`: the survivor count (dose: 100.0 mg/kg/injection, schedule: Q01DX Z (ip), vehicle: saline) is on record as 0 of 6 and the survivor count (dose: 200.0 mg/kg/injection, schedule: Q01DX Z (ip), vehicle: saline) is given as 0 of 6.

The values are drawn from PubChem BioAssay AID248 (DTP/NCI, 2004).
